According to the supplement of paper PMC10849652:
The other results are listed elsewhere or left out.

Protein sequences, listed by entry. Tags and fused reporters are not part of them. Lines headed by an entry give the natural chain unless they say otherwise; changes in a name come on top.
UniProt Q9UIU6: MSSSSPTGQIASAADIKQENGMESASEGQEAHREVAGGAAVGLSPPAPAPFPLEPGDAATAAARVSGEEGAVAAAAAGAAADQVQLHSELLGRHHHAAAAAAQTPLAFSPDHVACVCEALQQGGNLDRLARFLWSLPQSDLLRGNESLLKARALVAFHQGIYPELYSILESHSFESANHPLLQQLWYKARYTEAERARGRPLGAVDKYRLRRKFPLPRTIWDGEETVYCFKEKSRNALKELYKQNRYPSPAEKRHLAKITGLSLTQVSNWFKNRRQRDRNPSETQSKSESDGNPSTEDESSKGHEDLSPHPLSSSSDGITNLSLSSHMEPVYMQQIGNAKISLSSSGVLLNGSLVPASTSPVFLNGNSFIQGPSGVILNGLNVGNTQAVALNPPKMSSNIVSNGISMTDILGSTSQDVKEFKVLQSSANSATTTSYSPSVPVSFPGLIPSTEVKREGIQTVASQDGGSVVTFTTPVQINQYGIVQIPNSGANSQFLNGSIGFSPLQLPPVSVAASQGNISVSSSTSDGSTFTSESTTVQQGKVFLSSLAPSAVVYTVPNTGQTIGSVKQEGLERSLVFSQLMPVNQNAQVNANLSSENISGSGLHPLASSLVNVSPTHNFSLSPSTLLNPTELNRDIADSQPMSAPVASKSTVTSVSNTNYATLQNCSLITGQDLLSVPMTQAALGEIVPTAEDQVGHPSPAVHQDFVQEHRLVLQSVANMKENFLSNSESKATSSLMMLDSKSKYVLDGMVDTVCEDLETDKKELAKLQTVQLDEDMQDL
UniProt O43255: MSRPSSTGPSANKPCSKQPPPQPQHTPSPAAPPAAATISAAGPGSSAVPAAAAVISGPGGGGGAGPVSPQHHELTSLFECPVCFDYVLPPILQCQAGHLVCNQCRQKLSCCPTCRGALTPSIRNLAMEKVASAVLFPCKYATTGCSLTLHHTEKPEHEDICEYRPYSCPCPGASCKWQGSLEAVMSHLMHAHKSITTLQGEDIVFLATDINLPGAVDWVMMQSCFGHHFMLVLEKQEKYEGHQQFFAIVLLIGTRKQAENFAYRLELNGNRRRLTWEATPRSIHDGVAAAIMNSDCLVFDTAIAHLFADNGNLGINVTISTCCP
UniProt Q9NP50: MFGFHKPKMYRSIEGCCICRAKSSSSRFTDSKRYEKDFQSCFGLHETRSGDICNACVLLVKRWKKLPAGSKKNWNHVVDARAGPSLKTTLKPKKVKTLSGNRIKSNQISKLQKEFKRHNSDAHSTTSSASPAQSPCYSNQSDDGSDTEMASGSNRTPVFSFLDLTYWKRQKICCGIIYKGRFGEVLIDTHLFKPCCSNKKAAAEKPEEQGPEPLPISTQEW
UniProt Q8N196: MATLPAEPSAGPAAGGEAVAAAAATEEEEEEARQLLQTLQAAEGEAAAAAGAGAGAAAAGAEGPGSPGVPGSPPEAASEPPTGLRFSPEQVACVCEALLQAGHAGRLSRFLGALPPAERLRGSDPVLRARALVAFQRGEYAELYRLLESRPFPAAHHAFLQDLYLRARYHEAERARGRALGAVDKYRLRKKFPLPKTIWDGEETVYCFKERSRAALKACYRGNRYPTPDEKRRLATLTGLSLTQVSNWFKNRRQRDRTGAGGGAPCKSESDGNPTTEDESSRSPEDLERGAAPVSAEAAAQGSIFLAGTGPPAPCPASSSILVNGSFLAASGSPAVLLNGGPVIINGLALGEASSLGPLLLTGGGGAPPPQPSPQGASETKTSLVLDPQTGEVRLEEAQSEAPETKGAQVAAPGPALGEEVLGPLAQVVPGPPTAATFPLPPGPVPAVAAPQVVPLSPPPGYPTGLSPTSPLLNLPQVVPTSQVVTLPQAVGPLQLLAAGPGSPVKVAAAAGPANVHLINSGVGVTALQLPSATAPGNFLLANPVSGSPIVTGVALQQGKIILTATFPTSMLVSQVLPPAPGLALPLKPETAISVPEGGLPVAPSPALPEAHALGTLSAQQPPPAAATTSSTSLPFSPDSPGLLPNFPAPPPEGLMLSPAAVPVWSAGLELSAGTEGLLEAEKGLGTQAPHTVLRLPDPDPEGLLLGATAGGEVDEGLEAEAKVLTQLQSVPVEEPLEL
UniProt P08697: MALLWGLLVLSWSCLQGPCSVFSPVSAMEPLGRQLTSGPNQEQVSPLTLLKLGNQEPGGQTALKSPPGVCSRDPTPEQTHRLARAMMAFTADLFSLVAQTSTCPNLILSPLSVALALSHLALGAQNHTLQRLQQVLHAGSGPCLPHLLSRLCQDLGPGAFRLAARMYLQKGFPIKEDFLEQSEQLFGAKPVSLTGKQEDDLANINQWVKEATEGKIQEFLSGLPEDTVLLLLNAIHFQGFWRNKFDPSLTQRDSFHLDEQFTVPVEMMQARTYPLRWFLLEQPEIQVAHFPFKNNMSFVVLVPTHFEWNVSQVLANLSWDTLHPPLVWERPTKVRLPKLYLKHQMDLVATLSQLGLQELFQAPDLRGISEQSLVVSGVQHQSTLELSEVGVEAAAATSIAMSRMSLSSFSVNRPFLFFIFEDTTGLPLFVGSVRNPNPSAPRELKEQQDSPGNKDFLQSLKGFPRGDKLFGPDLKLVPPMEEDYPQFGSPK
UniProt Q9UHW9: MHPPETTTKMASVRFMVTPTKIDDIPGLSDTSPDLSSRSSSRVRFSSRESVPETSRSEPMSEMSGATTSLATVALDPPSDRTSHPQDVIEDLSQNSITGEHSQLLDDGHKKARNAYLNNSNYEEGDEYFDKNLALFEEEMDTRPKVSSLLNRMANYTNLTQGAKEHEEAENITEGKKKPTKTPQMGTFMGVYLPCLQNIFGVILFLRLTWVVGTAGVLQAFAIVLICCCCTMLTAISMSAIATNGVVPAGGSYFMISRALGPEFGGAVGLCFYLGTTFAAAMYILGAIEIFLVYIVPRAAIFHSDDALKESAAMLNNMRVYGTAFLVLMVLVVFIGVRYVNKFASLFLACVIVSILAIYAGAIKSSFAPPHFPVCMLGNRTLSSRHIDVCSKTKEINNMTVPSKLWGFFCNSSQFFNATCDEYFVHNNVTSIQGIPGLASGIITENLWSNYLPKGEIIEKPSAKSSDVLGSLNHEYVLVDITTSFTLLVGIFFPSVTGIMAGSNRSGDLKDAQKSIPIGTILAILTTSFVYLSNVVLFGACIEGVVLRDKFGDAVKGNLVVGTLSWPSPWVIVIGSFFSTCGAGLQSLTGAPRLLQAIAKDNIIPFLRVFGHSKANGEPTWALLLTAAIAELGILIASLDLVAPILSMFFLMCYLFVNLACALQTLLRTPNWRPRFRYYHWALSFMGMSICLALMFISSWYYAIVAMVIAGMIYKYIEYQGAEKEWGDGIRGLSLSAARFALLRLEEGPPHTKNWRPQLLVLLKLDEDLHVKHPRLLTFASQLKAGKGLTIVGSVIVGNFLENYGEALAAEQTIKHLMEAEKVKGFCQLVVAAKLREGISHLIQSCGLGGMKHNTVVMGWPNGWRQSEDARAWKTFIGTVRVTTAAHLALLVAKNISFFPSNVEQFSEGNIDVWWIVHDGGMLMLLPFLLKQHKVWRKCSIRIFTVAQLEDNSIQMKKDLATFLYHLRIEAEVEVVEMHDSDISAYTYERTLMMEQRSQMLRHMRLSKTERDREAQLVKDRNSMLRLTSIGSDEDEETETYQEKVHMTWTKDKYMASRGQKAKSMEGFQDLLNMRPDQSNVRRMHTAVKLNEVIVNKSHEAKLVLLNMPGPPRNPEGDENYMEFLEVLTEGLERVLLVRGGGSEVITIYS
UniProt Q9H0K1: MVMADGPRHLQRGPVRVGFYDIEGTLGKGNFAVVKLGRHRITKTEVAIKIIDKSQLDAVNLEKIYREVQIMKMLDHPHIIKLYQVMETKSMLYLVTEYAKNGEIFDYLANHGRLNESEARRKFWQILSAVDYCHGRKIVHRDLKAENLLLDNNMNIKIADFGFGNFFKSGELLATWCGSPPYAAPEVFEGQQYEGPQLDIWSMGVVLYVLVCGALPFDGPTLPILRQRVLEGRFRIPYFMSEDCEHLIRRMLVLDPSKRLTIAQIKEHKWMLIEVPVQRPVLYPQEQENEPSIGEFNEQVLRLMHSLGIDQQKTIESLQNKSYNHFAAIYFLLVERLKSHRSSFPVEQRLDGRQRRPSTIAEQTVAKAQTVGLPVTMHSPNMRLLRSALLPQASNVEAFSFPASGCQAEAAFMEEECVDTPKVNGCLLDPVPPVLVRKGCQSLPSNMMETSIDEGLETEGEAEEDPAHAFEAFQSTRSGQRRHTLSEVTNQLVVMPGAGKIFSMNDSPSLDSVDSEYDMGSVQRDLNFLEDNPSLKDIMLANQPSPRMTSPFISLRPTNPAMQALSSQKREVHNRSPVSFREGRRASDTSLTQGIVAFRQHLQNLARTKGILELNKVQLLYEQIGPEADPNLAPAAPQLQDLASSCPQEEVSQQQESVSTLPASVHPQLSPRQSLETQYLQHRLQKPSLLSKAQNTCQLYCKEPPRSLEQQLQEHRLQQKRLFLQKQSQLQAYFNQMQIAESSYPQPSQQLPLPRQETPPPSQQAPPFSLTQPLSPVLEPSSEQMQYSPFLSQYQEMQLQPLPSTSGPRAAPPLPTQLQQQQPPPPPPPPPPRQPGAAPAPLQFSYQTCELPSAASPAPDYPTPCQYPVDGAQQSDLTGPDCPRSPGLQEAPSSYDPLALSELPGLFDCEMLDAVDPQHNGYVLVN
UniProt Q86VW0: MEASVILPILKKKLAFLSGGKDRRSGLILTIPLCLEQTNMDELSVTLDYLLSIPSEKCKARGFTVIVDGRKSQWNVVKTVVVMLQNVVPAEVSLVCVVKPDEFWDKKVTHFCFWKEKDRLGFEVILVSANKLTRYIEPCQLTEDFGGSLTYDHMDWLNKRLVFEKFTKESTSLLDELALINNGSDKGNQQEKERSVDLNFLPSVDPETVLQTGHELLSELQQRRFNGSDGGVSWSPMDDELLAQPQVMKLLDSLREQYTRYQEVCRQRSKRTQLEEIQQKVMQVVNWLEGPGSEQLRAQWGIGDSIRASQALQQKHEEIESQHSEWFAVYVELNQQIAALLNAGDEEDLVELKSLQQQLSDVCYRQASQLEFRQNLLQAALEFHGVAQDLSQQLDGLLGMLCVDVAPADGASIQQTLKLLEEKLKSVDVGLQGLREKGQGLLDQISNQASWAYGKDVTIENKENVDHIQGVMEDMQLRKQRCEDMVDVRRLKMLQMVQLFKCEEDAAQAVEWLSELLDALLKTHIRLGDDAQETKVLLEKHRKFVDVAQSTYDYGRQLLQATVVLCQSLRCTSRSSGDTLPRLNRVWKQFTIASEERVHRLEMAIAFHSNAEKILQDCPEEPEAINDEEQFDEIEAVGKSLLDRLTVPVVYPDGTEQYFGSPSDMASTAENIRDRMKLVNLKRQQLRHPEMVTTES
UniProt Q9UIV8: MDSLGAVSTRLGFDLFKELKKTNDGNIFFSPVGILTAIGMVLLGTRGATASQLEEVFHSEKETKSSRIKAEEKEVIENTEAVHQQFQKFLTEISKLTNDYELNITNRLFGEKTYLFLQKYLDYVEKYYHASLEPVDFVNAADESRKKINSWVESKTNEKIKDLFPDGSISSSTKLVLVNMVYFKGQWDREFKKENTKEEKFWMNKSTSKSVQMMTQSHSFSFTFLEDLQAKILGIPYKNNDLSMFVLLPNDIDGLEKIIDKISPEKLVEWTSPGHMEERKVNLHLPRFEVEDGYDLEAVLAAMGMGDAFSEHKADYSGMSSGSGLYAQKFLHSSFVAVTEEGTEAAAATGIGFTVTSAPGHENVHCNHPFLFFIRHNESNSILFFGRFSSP
UniProt Q96JX3: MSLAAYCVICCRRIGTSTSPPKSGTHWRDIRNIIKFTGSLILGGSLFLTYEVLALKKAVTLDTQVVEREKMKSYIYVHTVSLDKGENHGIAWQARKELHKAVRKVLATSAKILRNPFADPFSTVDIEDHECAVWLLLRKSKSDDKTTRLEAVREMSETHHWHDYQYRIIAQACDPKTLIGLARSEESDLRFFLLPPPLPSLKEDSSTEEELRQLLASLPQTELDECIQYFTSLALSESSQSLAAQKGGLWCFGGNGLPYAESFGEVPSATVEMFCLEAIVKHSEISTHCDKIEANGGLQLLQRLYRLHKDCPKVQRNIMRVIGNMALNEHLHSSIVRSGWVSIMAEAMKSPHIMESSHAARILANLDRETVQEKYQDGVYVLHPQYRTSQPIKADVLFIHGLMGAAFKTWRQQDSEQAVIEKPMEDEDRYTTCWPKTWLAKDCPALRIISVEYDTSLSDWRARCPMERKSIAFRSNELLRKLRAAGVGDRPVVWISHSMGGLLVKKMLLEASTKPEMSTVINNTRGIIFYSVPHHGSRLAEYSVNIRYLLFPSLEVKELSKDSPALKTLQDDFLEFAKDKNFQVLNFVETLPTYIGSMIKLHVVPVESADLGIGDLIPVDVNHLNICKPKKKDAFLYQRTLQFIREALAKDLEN
UniProt Q8IYI0: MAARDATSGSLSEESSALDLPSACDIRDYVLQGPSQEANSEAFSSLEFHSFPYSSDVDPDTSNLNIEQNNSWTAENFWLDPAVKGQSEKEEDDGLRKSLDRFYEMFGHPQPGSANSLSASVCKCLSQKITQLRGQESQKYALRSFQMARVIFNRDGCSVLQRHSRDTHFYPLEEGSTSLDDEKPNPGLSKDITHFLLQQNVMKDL

How the values were obtained:
Experiment in all cases: log2 fold change, soluble protein after heating vs DMSO (PISA); higher = thermal stabilisation; K562 lysate, 10 uM; active = over 0.2 and 3.5 SD of the protein, either way, in both replicates (recomputed)
vemurafenib = compound: CCCS(=O)(=O)Nc1ccc(F)c(C(=O)c2c[nH]c3ncc(-c4ccc(Cl)cc4)cc23)c1F [vemurafenib]
Method in brief: (§1)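 Quantification was by TMTpro 16plex LC-MS/MS with equalised channel sums, applied to the supernatant after 21,000xg for 90 min. Samples were crude K562 extract at 1 mg/mL protein in PBS pH 7.4 with 1 mM MgCl2, treated with 10 μM compound for 30 min, heated for 3 min across 48°C-58°C, pooled and brought to 0.5% NP-40 at 4°C. Values are log-two fold changes in thermal stability relative to solvent controls, from duplicates.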

[1] = compound: CCCS(=O)(=O)Nc1ccc(F)c(C(=O)c2c[nH]c3ncc(Cl)cc23)c1F
Method in brief: as §1

[2] = compound: CC[C@@H]1C(=O)N(C)c2cnc(Nc3ccc(C(=O)NC4CCN(C)CC4)cc3OC)nc2N1C1CCCC1
Method in brief: as §1

volasertib = compound: CC[C@@H]1C(=O)N(C)c2cnc(Nc3ccc(C(=O)N[C@H]4CC[C@H](N5CCN(CC6CC6)CC5)CC4)cc3OC)nc2N1C(C)C [volasertib]
Method in brief: as §1

[3] = compound: CCn1c(C(=O)N(C2CC2)C2CC2)cc2c3c(ncn3C)c(Nc3cc(C)n(C)n3)nc21
Method in brief: as §1

[4] = compound: CCn1cc(-c2ccnc3[nH]c(-c4cccc(CN(C)C)c4)cc23)c(-c2ccc(NC(=O)N(C)C)cc2)n1
Method in brief: as §1

[5] = compound: CN1CCC(CNc2ccc3ncc(-c4cccc(OC(F)(F)F)c4)n3n2)CC1
Method in brief: as §1

saracatinib = compound: CN1CCN(CCOc2cc(OC3CCOCC3)c3c(Nc4c(Cl)ccc5c4OCO5)ncnc3c2)CC1 [saracatinib]
Method in brief: as §1

sotrastaurin = compound: CN1CCN(c2nc(C3=C(c4c[nH]c5ccccc45)C(=O)NC3=O)c3ccccc3n2)CC1 [sotrastaurin]
Method in brief: as §1

alvocidib = compound: CN1CC[C@H](c2c(O)cc(O)c3c(=O)cc(-c4ccccc4Cl)oc23)[C@H](O)C1 [alvocidib]
Method in brief: as §1

Tubastatin A = compound: CN1CCc2c(c3ccccc3n2Cc2ccc(C(=O)NO)cc2)C1 [Tubastatin A]
Method in brief: as §1

[6] = compound: CNC(=O)C1=CC=CC=C1NC2=NC(=NC=C2Cl)NC3=C(C=C(C=C3)N4CCOCC4)OC
Method in brief: as §1

defactinib = compound: CNC(=O)c1ccc(Nc2ncc(C(F)(F)F)c(NCc3nccnc3N(C)S(C)(=O)=O)n2)cc1 [defactinib]
Method in brief: as §1

[7] = compound: CNc1nc(-c2ccc3c(N)n[nH]c3c2)cc(N2C[C@@H](C(=O)NC3CCCCC3)CC[C@H]2C)n1
Method in brief: as §1

encorafenib = compound: COC(=O)N[C@@H](C)CNc1nccc(-c2cn(C(C)C)nc2-c2cc(Cl)cc(NS(C)(=O)=O)c2F)n1 [encorafenib]
Method in brief: as §1

[8] = compound: COC(=O)[C@H](CCSC)NC(=O)C1=C(C=C(C=C1)NC[C@H](CS)N)C2=CC=CC=C2
Method in brief: as §1

[9] = compound: COc1cc2nc(-c3cc(F)ccc3O)nc(N[C@@H]3CNC[C@H]3C(C)(C)O)c2cc1OC
Method in brief: as §1

barasertib = compound: CCN(CCCOc1ccc2c(Nc3cc(CC(=O)Nc4cccc(F)c4)[nH]n3)ncnc2c1)CCOP(=O)(O)O [barasertib]
Method in brief: as §1

alisertib = compound: COc1cc(Nc2ncc3c(n2)-c2ccc(Cl)cc2C(c2c(F)cccc2OC)=NC3)ccc1C(=O)O [alisertib]
Method in brief: as §1

gefitinib = compound: COc1cc2ncnc(Nc3ccc(F)c(Cl)c3)c2cc1OCCCN1CCOCC1 [gefitinib]
Method in brief: as §1

Measured: log2 fold change

SKOR2 (UniProt Q2VWA4)
inactive: vemurafenib 0.066 | [1] -0.027 | [2] 0.087 | volasertib 0.008 | [3] -0.145 | [4] -0.529 | [5] 0.343 | saracatinib -0.03 | sotrastaurin 0.024 | alvocidib -0.302 | Tubastatin A -0.021 | [6] -0.053 | defactinib 0.011 | [7] 0.198 | encorafenib 0.022 | [8] 0.02 | [9] 0.123

SIX4 (UniProt Q9UIU6)
inactive: [1] 0.039 | barasertib 0.145 | [2] -0.095 | volasertib 0.092 | [3] 0.02 | [4] -0.063 | [5] -0.008 | alvocidib -0.041 | Tubastatin A -0.188 | [6] -0.032 | encorafenib -0.046 | [8] 0.32 | alisertib 0.031 | [9] -0.288 | gefitinib -0.119

SIAH2 (UniProt O43255)
inactive: vemurafenib 0.003 | [1] -0.026 | barasertib -0.043 | volasertib 0.124 | [4] -0.024 | [5] 0.087 | alvocidib 0.002 | [6] 0.073 | defactinib 0.043 | alisertib -0.002 | [9] 0.091 | gefitinib -0.093

SKIV2L (UniProt Q15477)
inactive: vemurafenib -0.154 | defactinib 0.162

SLC19A2 (UniProt O60779)
inactive: [1] -0.025 | barasertib -0.101 | [2] 0.178 | volasertib -0.008 | [4] -0.099 | [5] 0.011 | saracatinib 0.044 | alvocidib 0.059 | [7] 0.097 | encorafenib -0.007 | [8] 0.194 | alisertib 0.025 | [9] 0.134 | gefitinib 0.156

SINHCAF (UniProt Q9NP50)
inactive: vemurafenib 0.09 | [3] 0 | [4] -0.051 | [5] 0.057 | saracatinib 0.106 | sotrastaurin 0.052 | alvocidib 0.14 | Tubastatin A -0.067 | [6] -0.004 | defactinib 0.154 | [7] -0.317 | alisertib 0.013 | gefitinib 0.062

SFXN5 (UniProt Q8TD22)
inactive: vemurafenib -0.007 | [1] -0.04 | [2] 0.016 | volasertib 0.165 | [3] 0.165 | saracatinib 0.061 | sotrastaurin 0.056 | Tubastatin A 0.009 | [6] 0.003 | defactinib 0.067 | [7] 0.06 | encorafenib 0.022 | [8] 0.055 | alisertib 0.001 | [9] -0.011 | gefitinib -0.062

SIX5 (UniProt Q8N196)
inactive: [1] 0.031 | barasertib -0.026 | volasertib -0.046 | [3] 0.084 | [4] 0.538 | [5] -0.132 | saracatinib -0.093 | sotrastaurin -0.009 | alvocidib 0.159 | Tubastatin A 0.117 | [6] 0.015 | [7] 0.043 | alisertib 0.023 | [9] 0.008 | gefitinib 0.13

SESN1 isoform 2 (UniProt Q9Y6P5)
inactive: [1] -0.001 | barasertib 0.101 | [2] 0.248 | volasertib 0.135 | [4] -0.008 | [5] -0.008 | sotrastaurin -0.148 | alvocidib -0.019 | [6] 0.046 | encorafenib -0.081 | [8] 0.133 | [9] -0.07

SERPINF2 (UniProt P08697)
inactive: vemurafenib 0.001 | barasertib 0.053 | [2] 0.049 | [4] 0.606 | [5] -0.096 | sotrastaurin 0.055 | alvocidib -0.009 | defactinib -0.167 | encorafenib 0.034 | [8] 0.041

SIN3B (UniProt O75182)
inactive: vemurafenib -0.042 | [2] -0.092 | [4] -0.061 | [5] 0.267 | sotrastaurin -0.099 | alvocidib -0.463 | defactinib 0.185 | encorafenib 0.12 | [8] 0.272 | alisertib -0.064 | gefitinib 0.793

SH2B3 (UniProt Q9UQQ2)
inactive: vemurafenib 0.085 | [2] 0.028 | sotrastaurin 0.15 | [6] 0.045 | defactinib 0.152 | encorafenib -0.067 | [8] -0.051

Quoted from the listing (6 entries):
SLC19A2 (UniProt O60779)
inactive: [1] -0.025 | barasertib -0.101 | [2] 0.178 | volasertib -0.008 | [4] -0.099 | [5] 0.011 | saracatinib 0.044 | alvocidib 0.059 | [7] 0.097 | encorafenib -0.007 | [8] 0.194 | alisertib 0.025 | [9] 0.134 | gefitinib 0.156

SINHCAF (UniProt Q9NP50)
inactive: vemurafenib 0.09 | [3] 0 | [4] -0.051 | [5] 0.057 | saracatinib 0.106 | sotrastaurin 0.052 | alvocidib 0.14 | Tubastatin A -0.067 | [6] -0.004 | defactinib 0.154 | [7] -0.317 | alisertib 0.013 | gefitinib 0.062

SFXN5 (UniProt Q8TD22)
inactive: vemurafenib -0.007 | [1] -0.04 | [2] 0.016 | volasertib 0.165 | [3] 0.165 | saracatinib 0.061 | sotrastaurin 0.056 | Tubastatin A 0.009 | [6] 0.003 | defactinib 0.067 | [7] 0.06 | encorafenib 0.022 | [8] 0.055 | alisertib 0.001 | [9] -0.011 | gefitinib -0.062

SIX5 (UniProt Q8N196)
inactive: [1] 0.031 | barasertib -0.026 | volasertib -0.046 | [3] 0.084 | [4] 0.538 | [5] -0.132 | saracatinib -0.093 | sotrastaurin -0.009 | alvocidib 0.159 | Tubastatin A 0.117 | [6] 0.015 | [7] 0.043 | alisertib 0.023 | [9] 0.008 | gefitinib 0.13

SESN1 isoform 2 (UniProt Q9Y6P5)
inactive: [1] -0.001 | barasertib 0.101 | [2] 0.248 | volasertib 0.135 | [4] -0.008 | [5] -0.008 | sotrastaurin -0.148 | alvocidib -0.019 | [6] 0.046 | encorafenib -0.081 | [8] 0.133 | [9] -0.07

SERPINF2 (UniProt P08697)
inactive: vemurafenib 0.001 | barasertib 0.053 | [2] 0.049 | [4] 0.606 | [5] -0.096 | sotrastaurin 0.055 | alvocidib -0.009 | defactinib -0.167 | encorafenib 0.034 | [8] 0.041

Additional records follow.

SET isoform 3 (UniProt Q01105)
inactive: [2] -0.28 | [4] -0.177 | [5] 0.094 | saracatinib 0.172 | alvocidib -0.038 | [7] 0.2 | encorafenib 0.109 | [8] -0.169

SGSM3 isoform 2 (UniProt Q96HU1)
inactive: [1] 0.038 | volasertib -0.003 | [3] 0.027 | sotrastaurin -0.066 | Tubastatin A 0.023 | [6] 0.105 | alisertib 0.112 | [9] 0 | gefitinib -0.023

SLC16A3 (UniProt O15427)
inactive: [3] -0.126 | Tubastatin A -0.151

SLC12A6 isoform 2 (UniProt Q9UHW9)
inactive: [1] 0.009 | [2] 0.053 | volasertib -0.178 | [3] -0.021 | saracatinib 0.042 | sotrastaurin 0.057 | Tubastatin A -0.013 | [6] -0.149 | [7] -0.008 | encorafenib 0.031 | [8] 0.075 | [9] -0.106

SIK2 (UniProt Q9H0K1)
inactive: [2] 0.018 | [3] 0.009 | [4] -0.187 | [5] 0.106 | alvocidib 0.007 | Tubastatin A 0.154 | encorafenib -0.085 | [8] 0.005 | alisertib -0.084 | gefitinib 0.196

SIAE (UniProt Q9HAT2)
inactive: barasertib 0.127 | [2] 0.024 | [3] -0.123 | [4] -0.026 | [5] -0.058 | sotrastaurin 0.064 | alvocidib 0.043 | Tubastatin A 0.105 | encorafenib 0.07 | [8] -0.014

SERPINB7 (UniProt O75635)
inactive: [3] -0.206 | sotrastaurin -0.048 | Tubastatin A -0.143

SESTD1 (UniProt Q86VW0)
inactive: [3] 0.219 | sotrastaurin -0.222 | Tubastatin A -0.184

SERPINB13 (UniProt Q9UIV8)
inactive: barasertib 0.37

SERPINH1 (UniProt E9PK86)
inactive: alisertib -0.084 | gefitinib -0.05

SHQ1 (UniProt Q6PI26)
inactive: barasertib 0.055 | [3] 0.005 | [4] 0.087 | [5] -0.179 | saracatinib 0.288 | sotrastaurin 0.005 | alvocidib 0.048 | Tubastatin A 0.082 | [6] -0.008 | [7] -0.235 | alisertib 0.027 | gefitinib 0.074

SERAC1 (UniProt Q96JX3)
inactive: barasertib 0.142 | [2] 0.1 | [4] -0.061 | [5] 0.051 | saracatinib -0.096 | alvocidib 0.048 | [6] -0.024 | [7] 0.149 | encorafenib -0.051 | [8] -0.003 | alisertib -0.412 | gefitinib -0.165

SLC12A7 (UniProt Q9Y666)
inactive: [1] -0.169 | volasertib 0.186 | [4] -0.071 | [5] -0.099 | alvocidib 0.144 | [9] 0.082

SHB (UniProt Q15464)
inactive: [1] -0.049 | volasertib 0.072 | [3] 0.113 | [4] -0.125 | [5] -0.162 | saracatinib 0.003 | sotrastaurin -0.003 | alvocidib -0.139 | Tubastatin A -0.108 | [6] 0.169 | [7] 0.067 | [9] 0.034

SF3B2 (UniProt E9PJ04)
inactive: [1] 0.114 | barasertib -0.017 | volasertib -0.083 | [4] -0.1 | [5] 0.139 | alvocidib 0.082 | [6] -0.056 | alisertib 0.081 | [9] 0.025 | gefitinib -0.09

SLC10A4 (UniProt Q96EP9)
inactive: [1] -0.034 | volasertib -0.047 | [3] -0.392 | saracatinib 0.015 | Tubastatin A 0.031 | [6] 0.042 | [7] 0.06 | [9] 0.065

SHLD1 (UniProt Q8IYI0)
inactive: [2] 0.168 | saracatinib 0.252 | [7] 0.398 | encorafenib -0.064 | [8] 0.118
